# Library compounds against nucleic acid targets

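The test is a small-molecule microarray: each compound is printed twice on a reactive slide, and binding shows as fluorescence of the labelled oligonucleotide after washing. For the PreQ1, TPP and SAM-II riboswitches the laboratory earlier reported (doi:10.1038/s41467-019-09493-3) 1 µM RNA, 2 h, and a rule that included a mean Z-score above 3 (spot signal-to-noise against the whole library), a score well above that on a control array, and duplicate spots agreeing (coefficient of variation under 100). The data file gives only the calls; its cut-offs may differ, and compounds hitting several targets are kept. A missing hit is not proof of no binding, and a hit is not a measured affinity.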 A compound is marked hit if it was called a hit and no hit if it was screened but was not. This is an unselected part of the compounds tested. A target missing from an entry has no call listed here.

Targets, with sequences 5′ to 3′:
TPP: TPP riboswitch RNA three-way junction, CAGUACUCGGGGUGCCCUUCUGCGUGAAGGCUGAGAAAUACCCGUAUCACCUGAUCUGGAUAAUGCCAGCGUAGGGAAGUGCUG. About 160 hits among about 24,000 compounds.
SAM-II: SAM-II riboswitch RNA pseudoknot, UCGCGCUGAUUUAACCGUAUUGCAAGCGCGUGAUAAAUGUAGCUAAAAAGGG. About 200 hits among about 21,000 compounds.
PreQ1: PreQ1 riboswitch RNA pseudoknot, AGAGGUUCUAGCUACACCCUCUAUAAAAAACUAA. From B. subtilis. About 170 hits among about 24,000 compounds.

Calls for CCCCCCCCNc1cccc(Br)c1 are TPP: hit; SAM-II: no hit; PreQ1: no hit.
Calls for CC1=C(C(=O)OC(C)(C)C)C(c2cccc(F)c2)C(C#N)=C(N)O1 (centres undefined) are TPP: no hit; SAM-II: no hit; PreQ1: no hit.
Calls for Cc1nc2ccccc2n1CCc1nc2c3ccccc3nc(NCc3cccnc3)n2n1 are TPP: no hit; PreQ1: no hit.
Calls for Cc1ccc(N2C(=O)CC(NC3CCCCCC3)C2=O)cc1 (centres undefined) are TPP: no hit; SAM-II: no hit; PreQ1: no hit.
Calls for Cc1c(CN2CCN(S(C)(=O)=O)CC2)sc2c(N3CCOCC3)nc(-c3cnc(N)nc3)nc12 are TPP: no hit; SAM-II: no hit; PreQ1: no hit.
Calls for OCc1nc2ccccc2n1CC(O)COc1ccc(F)cc1 (centres undefined) are TPP: no hit; SAM-II: no hit; PreQ1: no hit.
Calls for CCOC(=O)c1c(-c2ccccc2)csc1NC(NC(=O)c1ccco1)C(=O)c1ccc(C)cc1 (centres undefined) are TPP: no hit; SAM-II: no hit; PreQ1: no hit.
Calls for COc1ccc2c3c1O[C@@H]1C[C@@H](O)C=C[C@@]31CCN(C)C2 are TPP: no hit; SAM-II: no hit; PreQ1: no hit.
Calls for C=CCc1cccc2cc(C(=O)N3CCN(CCO)CC3)c(=O)oc12 are TPP: no hit; SAM-II: no hit; PreQ1: no hit.
Calls for Nc1ncnc2c1c(-c1cccc(OCc3ccccc3)c1)cn2C1CC(CN2CCCC2)C1 (centres undefined) are TPP: no hit; SAM-II: no hit; PreQ1: no hit.
Calls for Cc1ccc(-c2cc(C(=O)NC(C)(C)CO)no2)cc1 are TPP: no hit; SAM-II: no hit; PreQ1: no hit.
Calls for Cl.Cl.OC(COc1ccc2c(c1)CCC2)CN1CCN(c2ccccn2)CC1 (centres undefined) are TPP: no hit; SAM-II: no hit; PreQ1: no hit.
Calls for Cc1ccc(F)c(C(=O)N2CCNCC2C(=O)N2CCN(C)CC2)c1Cl (centres undefined) are TPP: no hit; SAM-II: no hit; PreQ1: no hit.
Calls for Cc1ccccc1C1C(C#N)=C(N)OC2=C1C(=O)CC(C)(C)C2 (centres undefined) are TPP: no hit; SAM-II: no hit; PreQ1: no hit.
Calls for C=C(C)COc1cccc(C2NCCc3[nH]cnc32)c1 (centres undefined) are TPP: no hit; SAM-II: no hit; PreQ1: no hit.
Calls for Nc1ncc(C(=O)NCc2c[nH]nc2-c2cccs2)c(-c2ccccc2)n1 are TPP: no hit; SAM-II: no hit; PreQ1: no hit.
Calls for CCn1c(NCC(O)c2ccccc2)nc2c1c(=O)n(C)c(=O)n2C (centres undefined) are TPP: no hit; SAM-II: no hit; PreQ1: no hit.
Calls for CCOC(=O)c1sc2nccc(N(C)C)c2c1N are TPP: no hit; SAM-II: no hit; PreQ1: no hit.
Calls for Cn1c(=O)c2c(nc(N3CCOCC3)n2C)n(C)c1=O are TPP: no hit; SAM-II: no hit; PreQ1: no hit.
Calls for C=C(C)CC1Nc2ccccc2NC1CC(=C)C (centres undefined) are TPP: no hit; SAM-II: no hit; PreQ1: no hit.
Calls for Cc1nc(N)nc(C)c1CC(=O)N1CCN(CCOc2ccccc2)CC1 are TPP: no hit; SAM-II: no hit; PreQ1: no hit.
Calls for Nc1cc(OC(=O)c2ccccc2F)nn1S(=O)(=O)c1ccccc1 are TPP: no hit; SAM-II: no hit; PreQ1: no hit.
Calls for CCS(=O)(=O)CCNC1CCN(c2ccc(C(F)(F)F)cn2)CC1 are TPP: no hit; SAM-II: no hit; PreQ1: no hit.

2 of the entries, repeated:

structure,TPP,SAM-II,PreQ1
Nc1ncnc2c1c(-c1cccc(OCc3ccccc3)c1)cn2C1CC(CN2CCCC2)C1 (centres undefined),no hit,no hit,no hit
Cl.Cl.OC(COc1ccc2c(c1)CCC2)CN1CCN(c2ccccn2)CC1 (centres undefined),no hit,no hit,no hit

Calls as published in the ROBIN set (doi:10.1002/anie.202211358).